This assay addresses yeast dynein^DK (open mutant that cannot adopt the phi conformation) (S. cerevisiae). The assay is described as follows: TIRF microscopy microtubule recruitment assay; yeast proteins; dynein on taxol-stabilised microtubules held by anti-tubulin antibody; fluorescent partner flowed in, TEV buffer with 1 mM DTT, 5-10 min; intensity along microtubules; both purified.

Results are given in words; binding and its absence hold for the method and conditions named. Binding calls can cover weak binding; strength is not graded here. Sequences can lack the tags named with a protein.

B1: full-length yeast Ndl1 with C-terminal FLAG-SNAPf (protein, UniProt Q06568 1-189)
chain: MVPNLDLETAIQIISSLETQLSELEGATKEYENDLEQVISKLKSDLLESQQQNKCNKKQITDLEIQVDELENENIQLRNKIETLQLESDRRLERNVLLEHELLDTKEALQKLRVSKEEATSGETRRNTRSLPSQNKKMKLFKDTIKVSTTSSTLYLQNMAKTNNAARSHCNIPNTQITQSTVIATTSSV
modifications: JFX554-SNAP or JFX650-SNAP ligand on the SNAPf tag
Take B1: the binding result was “binds”.

The record behind these values is paper PMC10511499.
